Among the data in doi:10.1101/259481 are binding values, retold here.

Chains of the proteins cited; added tags and fusions are not shown. Lines headed by an entry give the natural chain unless they say otherwise; changes in a name come on top. A line that says so, or that is headed by a name, gives the form on record, which may keep a tag or linker. Residues count along the entry.
laminin alpha 4 LG domain recombinant protein (Q16363, residues 826-1816): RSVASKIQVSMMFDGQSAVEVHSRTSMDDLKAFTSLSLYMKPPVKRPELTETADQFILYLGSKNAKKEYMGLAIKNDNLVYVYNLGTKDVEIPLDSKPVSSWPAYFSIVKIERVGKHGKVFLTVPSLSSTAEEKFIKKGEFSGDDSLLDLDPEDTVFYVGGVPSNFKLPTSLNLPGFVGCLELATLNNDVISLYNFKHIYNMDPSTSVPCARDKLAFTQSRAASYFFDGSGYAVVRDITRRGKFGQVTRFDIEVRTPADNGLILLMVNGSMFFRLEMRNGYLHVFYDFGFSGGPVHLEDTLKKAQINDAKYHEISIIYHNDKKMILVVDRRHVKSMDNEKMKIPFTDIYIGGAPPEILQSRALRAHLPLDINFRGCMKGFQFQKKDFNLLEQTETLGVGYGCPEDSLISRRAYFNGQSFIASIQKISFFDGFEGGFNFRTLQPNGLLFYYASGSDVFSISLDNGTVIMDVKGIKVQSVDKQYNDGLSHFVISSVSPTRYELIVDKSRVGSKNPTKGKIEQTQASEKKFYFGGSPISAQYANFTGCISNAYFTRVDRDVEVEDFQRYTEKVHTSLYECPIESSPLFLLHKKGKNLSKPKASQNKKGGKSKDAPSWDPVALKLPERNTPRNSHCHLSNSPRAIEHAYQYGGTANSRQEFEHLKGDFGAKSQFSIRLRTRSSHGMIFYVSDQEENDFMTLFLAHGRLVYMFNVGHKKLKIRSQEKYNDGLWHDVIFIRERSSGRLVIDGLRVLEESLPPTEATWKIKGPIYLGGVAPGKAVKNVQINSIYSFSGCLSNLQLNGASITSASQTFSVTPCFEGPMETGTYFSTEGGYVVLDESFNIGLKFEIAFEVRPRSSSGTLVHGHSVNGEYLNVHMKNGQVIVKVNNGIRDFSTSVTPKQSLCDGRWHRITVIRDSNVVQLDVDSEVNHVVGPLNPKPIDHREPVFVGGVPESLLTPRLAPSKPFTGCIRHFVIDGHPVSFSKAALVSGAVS
laminin-derived peptide α4_(1408-1434) (Q16363, residues 1408-1434): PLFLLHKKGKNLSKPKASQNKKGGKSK
laminin-derived peptide α4_(1521-1543) (Q16363, residues 1521-1543): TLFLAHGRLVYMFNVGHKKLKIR
UniProt O15230: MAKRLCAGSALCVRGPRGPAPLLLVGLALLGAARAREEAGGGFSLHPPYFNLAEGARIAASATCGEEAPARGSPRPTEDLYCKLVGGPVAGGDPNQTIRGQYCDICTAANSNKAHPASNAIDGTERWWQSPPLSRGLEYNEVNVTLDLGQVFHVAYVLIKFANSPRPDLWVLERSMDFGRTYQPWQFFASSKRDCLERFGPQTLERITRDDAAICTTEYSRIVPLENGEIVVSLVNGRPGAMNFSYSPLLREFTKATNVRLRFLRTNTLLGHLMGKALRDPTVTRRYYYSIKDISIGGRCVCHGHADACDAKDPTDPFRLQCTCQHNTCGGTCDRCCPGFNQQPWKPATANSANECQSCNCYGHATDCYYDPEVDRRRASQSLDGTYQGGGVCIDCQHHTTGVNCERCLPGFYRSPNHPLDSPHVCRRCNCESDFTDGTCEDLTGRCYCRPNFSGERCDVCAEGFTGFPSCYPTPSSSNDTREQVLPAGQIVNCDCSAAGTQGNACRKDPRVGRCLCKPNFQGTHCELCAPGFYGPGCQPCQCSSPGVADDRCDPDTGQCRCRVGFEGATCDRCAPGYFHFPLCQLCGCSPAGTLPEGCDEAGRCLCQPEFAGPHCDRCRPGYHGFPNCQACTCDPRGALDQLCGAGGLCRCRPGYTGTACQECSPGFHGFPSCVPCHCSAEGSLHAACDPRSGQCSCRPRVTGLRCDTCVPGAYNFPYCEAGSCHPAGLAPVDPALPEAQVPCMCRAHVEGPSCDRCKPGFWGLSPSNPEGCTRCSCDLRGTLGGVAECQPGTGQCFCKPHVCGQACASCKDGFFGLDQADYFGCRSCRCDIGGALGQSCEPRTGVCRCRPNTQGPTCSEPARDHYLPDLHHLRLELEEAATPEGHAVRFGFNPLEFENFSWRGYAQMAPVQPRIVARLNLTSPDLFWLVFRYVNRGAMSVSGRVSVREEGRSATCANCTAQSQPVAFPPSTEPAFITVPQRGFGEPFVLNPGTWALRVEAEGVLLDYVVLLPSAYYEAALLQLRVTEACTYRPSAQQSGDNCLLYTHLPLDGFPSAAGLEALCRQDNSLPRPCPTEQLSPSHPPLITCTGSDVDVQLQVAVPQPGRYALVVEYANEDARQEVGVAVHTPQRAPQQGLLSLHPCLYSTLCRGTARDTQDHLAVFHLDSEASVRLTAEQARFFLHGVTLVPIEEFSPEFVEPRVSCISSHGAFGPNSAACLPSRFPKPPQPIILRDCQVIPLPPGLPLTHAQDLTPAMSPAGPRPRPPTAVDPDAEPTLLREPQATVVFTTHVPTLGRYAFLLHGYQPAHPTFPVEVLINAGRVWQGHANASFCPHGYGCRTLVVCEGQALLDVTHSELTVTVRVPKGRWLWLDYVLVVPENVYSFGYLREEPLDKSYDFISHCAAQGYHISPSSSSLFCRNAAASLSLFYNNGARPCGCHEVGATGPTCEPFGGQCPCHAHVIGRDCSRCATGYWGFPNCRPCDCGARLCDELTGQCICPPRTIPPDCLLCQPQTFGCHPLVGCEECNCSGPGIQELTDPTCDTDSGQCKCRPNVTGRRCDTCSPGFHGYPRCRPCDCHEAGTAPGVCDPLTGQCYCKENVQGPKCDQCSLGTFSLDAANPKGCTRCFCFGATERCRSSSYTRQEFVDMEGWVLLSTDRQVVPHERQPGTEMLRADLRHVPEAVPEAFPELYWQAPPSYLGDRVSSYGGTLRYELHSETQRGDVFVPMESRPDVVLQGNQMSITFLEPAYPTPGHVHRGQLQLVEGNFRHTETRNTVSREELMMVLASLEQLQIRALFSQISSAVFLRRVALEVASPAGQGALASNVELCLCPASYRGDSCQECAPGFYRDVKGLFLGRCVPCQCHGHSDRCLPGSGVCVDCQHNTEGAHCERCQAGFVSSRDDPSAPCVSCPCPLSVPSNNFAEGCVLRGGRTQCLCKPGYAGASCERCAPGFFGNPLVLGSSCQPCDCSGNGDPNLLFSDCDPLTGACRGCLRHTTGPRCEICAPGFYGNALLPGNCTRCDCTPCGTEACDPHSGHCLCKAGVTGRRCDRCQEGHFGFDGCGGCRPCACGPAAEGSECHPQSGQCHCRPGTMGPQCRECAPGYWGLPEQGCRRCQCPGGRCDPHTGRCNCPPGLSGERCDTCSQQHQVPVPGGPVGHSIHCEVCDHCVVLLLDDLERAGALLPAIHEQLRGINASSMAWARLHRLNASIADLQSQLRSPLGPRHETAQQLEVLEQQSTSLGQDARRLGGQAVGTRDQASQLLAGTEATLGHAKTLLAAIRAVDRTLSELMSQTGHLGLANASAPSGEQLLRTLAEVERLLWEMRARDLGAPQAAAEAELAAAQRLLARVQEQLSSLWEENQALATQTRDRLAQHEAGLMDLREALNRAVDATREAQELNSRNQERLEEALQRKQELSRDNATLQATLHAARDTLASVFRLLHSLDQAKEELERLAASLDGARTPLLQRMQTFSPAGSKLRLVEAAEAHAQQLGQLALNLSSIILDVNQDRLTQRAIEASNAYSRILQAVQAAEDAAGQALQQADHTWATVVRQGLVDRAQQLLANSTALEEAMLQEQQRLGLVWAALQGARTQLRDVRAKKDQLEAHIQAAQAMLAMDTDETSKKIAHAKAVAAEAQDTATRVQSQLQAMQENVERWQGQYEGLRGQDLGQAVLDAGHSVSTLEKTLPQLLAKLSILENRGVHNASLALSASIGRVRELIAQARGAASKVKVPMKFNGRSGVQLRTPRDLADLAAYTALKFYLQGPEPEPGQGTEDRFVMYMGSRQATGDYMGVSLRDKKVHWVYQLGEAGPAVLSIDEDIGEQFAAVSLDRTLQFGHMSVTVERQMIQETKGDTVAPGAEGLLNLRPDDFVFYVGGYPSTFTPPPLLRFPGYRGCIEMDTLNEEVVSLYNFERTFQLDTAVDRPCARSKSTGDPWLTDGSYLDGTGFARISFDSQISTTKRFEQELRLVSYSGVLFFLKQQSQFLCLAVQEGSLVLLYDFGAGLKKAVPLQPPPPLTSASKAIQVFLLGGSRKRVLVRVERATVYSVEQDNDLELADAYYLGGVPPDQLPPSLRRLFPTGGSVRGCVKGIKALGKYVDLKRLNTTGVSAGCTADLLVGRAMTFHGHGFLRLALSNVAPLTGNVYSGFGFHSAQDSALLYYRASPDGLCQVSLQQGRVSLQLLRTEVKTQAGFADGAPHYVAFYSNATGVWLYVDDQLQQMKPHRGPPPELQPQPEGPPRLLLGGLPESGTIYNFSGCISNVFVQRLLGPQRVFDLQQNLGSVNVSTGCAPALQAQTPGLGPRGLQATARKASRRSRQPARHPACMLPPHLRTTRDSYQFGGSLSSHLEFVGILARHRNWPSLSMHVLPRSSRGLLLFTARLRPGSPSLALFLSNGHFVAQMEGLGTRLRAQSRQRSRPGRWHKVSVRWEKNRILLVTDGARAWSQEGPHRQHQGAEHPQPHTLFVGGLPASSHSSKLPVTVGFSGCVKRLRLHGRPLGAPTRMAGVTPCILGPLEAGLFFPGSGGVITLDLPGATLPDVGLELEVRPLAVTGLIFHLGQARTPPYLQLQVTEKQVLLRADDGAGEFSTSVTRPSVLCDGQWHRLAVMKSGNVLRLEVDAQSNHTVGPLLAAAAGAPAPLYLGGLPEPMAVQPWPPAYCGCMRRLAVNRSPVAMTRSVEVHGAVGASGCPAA
C-X-C motif ligand (CXCL)-12α (P48061, residues 22-89): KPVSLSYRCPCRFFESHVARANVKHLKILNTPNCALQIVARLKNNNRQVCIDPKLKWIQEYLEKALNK
CXCL-12γ (P48061, form named): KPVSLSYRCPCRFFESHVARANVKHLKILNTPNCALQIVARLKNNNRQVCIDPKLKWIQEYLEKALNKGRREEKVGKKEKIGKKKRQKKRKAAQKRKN
UniProt P05230, residues 16-155: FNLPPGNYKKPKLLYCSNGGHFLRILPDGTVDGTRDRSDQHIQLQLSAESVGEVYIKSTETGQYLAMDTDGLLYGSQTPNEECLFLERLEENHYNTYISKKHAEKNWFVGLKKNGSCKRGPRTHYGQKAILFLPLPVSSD
UniProt O76093, residues 28-207: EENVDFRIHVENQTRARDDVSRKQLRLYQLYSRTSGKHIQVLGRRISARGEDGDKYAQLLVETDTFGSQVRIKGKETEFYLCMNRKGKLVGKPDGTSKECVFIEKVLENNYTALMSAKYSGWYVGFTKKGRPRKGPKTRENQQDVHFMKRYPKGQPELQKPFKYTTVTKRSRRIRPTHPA
UniProt P05019, residues 49-118: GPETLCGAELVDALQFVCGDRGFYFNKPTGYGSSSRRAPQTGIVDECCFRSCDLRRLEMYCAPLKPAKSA
UniProt P01138, residues 122-241: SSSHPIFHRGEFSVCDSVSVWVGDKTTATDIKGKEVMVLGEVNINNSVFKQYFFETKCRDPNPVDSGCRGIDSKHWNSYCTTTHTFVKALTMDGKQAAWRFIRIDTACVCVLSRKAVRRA
UniProt P18075, residues 293-431: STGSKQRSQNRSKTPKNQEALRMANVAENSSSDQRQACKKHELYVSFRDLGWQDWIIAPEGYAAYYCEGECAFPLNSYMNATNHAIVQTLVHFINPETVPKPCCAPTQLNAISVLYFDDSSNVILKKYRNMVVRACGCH
UniProt Q99075, residues 63-148: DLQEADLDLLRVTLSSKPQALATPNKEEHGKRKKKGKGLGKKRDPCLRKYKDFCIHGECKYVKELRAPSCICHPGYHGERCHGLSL
UniProt P09038, residues 143-288: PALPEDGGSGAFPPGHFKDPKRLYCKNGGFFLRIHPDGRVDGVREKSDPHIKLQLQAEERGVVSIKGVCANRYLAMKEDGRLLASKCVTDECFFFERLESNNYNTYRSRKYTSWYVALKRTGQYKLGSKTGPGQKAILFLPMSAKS
UniProt P01127, residues 82-190: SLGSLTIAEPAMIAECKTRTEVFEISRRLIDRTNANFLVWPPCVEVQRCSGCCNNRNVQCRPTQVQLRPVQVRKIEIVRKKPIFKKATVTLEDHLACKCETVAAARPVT
UniProt P34741, residues 19-144: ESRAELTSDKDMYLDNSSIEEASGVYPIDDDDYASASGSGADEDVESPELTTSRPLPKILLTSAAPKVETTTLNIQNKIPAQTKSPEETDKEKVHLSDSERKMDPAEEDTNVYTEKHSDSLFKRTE

Common to all, as to experiment: ELISA
On the technique in general: In an ELISA, binding on a coated surface is turned into a signal by an enzyme label.

Assay [1] addresses laminin alpha 4 LG domain recombinant protein (human) (UniProt Q16363).
The target in the next assay is laminin-221 (UniProt P24043).
In assay [2] the target is laminin-derived peptide α4_(1521-1543) (human) (UniProt Q16363).
The target in assay [3] is T1, laminin-derived peptide α5_(3312-3325) (human) (UniProt O15230).
T1 sequence (peptide): ARKASRRSRQPARH

Assay [4] concerns the target laminin-derived peptide α4_(1408-1434) (human) (UniProt Q16363).
For assay [5], the target named is C-X-C motif ligand (CXCL)-12α (UniProt P48061).
The target in assay [6] is T2, bone morphogenetic protein (BMP)-2 (UniProt P12643).
T2 sequence: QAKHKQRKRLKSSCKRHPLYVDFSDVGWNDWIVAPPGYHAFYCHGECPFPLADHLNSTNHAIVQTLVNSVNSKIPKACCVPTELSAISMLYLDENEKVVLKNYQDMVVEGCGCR

Assay [7] addresses T3, fibroblast growth factor (FGF)-10 (UniProt O15520).
T3 sequence: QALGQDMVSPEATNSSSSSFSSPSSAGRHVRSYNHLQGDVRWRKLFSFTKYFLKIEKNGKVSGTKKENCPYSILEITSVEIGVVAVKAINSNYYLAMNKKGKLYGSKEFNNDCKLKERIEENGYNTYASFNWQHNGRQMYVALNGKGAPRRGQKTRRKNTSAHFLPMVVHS

In assay [8] the target is fibroblast growth factor (FGF)-1 (UniProt P05230).
The target in another assay is T4, neurotrophin (NT)-3 (UniProt P20783).
T4 sequence: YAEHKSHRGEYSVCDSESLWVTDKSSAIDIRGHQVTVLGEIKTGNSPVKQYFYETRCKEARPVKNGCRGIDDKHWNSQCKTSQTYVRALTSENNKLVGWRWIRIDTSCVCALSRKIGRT

In assay [9] the target is T5, placental growth factor (PlGF)-1 (human) (UniProt P49763).
T5 sequence: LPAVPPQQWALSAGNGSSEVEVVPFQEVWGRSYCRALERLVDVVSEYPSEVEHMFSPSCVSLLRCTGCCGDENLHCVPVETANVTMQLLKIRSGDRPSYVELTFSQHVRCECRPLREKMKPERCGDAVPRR

The target in assay [10] is fibroblast growth factor (FGF)-18 (UniProt O76093).
Assay [11] addresses insulin-like growth factor (IGF)-1 (UniProt P05019).
In another assay the target is CXCL-12γ (UniProt P48061).
Assay [12] concerns the target T6, fibroblast growth factor (FGF)-6 (UniProt P10767).
T6 sequence: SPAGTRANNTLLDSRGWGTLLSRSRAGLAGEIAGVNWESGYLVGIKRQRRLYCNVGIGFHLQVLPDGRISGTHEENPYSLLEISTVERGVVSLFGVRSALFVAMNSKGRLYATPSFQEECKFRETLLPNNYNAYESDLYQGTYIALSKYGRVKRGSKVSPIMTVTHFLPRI

Assay [13] has as its target β-nerve growth factor (NGF) (UniProt P01138).
The target in assay [14] is T7, bone morphogenetic protein (BMP)-4 (UniProt P12644).
T7 sequence: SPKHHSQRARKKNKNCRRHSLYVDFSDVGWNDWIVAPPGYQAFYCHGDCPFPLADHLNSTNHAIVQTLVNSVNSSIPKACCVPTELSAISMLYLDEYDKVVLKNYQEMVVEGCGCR

Assay [15] deals with bone morphogenetic protein (BMP)-7 (UniProt P18075).
The target in assay [16] is heparin-binding epidermal growth factor (HB-EGF) (UniProt Q99075).
In assay [17] the target is T8, fibroblast growth factor (FGF)-7 (UniProt P21781).
T8 sequence: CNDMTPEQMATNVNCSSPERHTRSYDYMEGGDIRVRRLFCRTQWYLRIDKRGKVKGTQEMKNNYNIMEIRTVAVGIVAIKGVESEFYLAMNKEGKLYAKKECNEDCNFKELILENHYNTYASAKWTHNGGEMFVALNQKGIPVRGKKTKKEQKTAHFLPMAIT

Assay [18] addresses T9, bone morphogenetic protein (BMP)-3 (UniProt P12645).
T9 sequence: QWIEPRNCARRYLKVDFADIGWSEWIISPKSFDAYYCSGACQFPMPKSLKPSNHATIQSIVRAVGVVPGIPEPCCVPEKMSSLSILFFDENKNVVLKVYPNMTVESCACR

The target in assay [19] is T10, C-X-C motif ligand (CXCL)-11 (UniProt O14625).
T10 sequence: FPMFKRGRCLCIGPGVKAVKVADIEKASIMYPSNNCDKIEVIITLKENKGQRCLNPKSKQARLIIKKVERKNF

Assay [20] addresses T11, laminin-derived peptide α3_(2932-2951) (human) (UniProt Q16787).
T11 sequence (peptide): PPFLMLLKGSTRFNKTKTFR

In assay [21] the target is T12, laminin-derived peptide α5_(3539-3550) (human) (UniProt O15230).
T12 sequence (peptide): TLPDVGLELEVR

The target in assay [22] is T13, laminin-derived peptide α3_(3031-3043) (human) (UniProt Q16787).
T13 sequence (peptide): KNSFMALYLSKGR

These are yes or no findings as the source states them, for the method shown. Some binding calls cover weakened binding; strength is not graded here.

For “fibroblast growth factor (FGF)-2 (from UniProt P09038 143-288) (ligand)”, the binding result in assay [1] is recorded as “binds”; with laminin-221, “binds”; in [2] it was “binds”; in assay [3] it was “no binding (tested: 1 μg/mL)”; in [4], “binds”.

For “laminin-521 (from UniProt O15230 36-3695; P55268 33-1798; P11047 34-1609) (complex)”, the binding entry in assay [5] is “no binding (tested: 10 nM)”; in assay [6], “binds”; in assay [7] it was “binds”; in assay [8], “no binding (tested: 10 nM)”; with neurotrophin (NT)-3 it was “binds”; in assay [9], “no binding (tested: 10 nM)”. Also, the binding result is given as “binds” in assay [10]; “no binding (tested: 10 nM)” in assay [11]; “binds” with CXCL-12γ; “no binding (tested: 10 nM)” in assay [12]; “binds weakly” in assay [13]; “no binding (tested: 10 nM)” in assay [14]. Also, the binding result in [15] is on record as “no binding (tested: 10 nM)”; in assay [16] it was “binds weakly”; in assay [17], “binds”; in assay [18], “binds”; in assay [19], “no binding (tested: 10 nM)”.

In the case of “platelet-derived growth factor (PDGF)-BB (from UniProt P01127 82-190) (ligand)”, the figures for the binding result in assay [1], in assay [3] and in assay [4] were “binds”, “no binding (tested: 1 μg/mL)” and “binds”, respectively.

“recombinant human syndecan-2 (from UniProt P34741 19-144) (receptor)”: the binding result is listed as “binds weakly” in assay [20]; “binds” in assay [2]; “no binding (tested: 1 μg/mL)” in [21]; “binds weakly” in [3]; “binds weakly” in assay [22]; “binds” in assay [4].
